{
  "source": "paper PMC10716047",
  "binders": {"B1": {"name": "hemagglutinin (HA)-tagged wild-type (WT) SMC1A (protein, UniProt Q14683 1-1233)", "chain": "MGFLKLIEIENFKSYKGRQIIGPFQRFTAIIGPNGSGKSNLMDAISFVLGEKTSNLRVKTLRDLIHGAPVGKPAANRAFVSMVYSEEGAEDRTFARVIVGGSSEYKINNKVVQLHEYSEELEKLGILIKARNFLVFQGAVESIAMKNPKERTALFEEISRSGELAQEYDKRKKEMVKAEEDTQFNYHRKKNIAAERKEAKQEKEEADRYQRLKDEVVRAQVQLQLFKLYHNEVEIEKLNKELASKNKEIEKDKKRMDKVEDELKEKKKELGKMMREQQQIEKEIKEKDSELNQKRPQYIKAKENTSHKIKKLEAAKKSLQNAQKHYKKRKGDMDELEKEMLSVEKARQEFEERMEEESQSQGRDLTLEENQVKKYHRLKEEASKRAATLAQELEKFNRDQKADQDRLDLEERKKVETEAKIKQKLREIEENQKRIEKLEEYITTSKQSLEEQKKLEGELTEEVEMAKRRIDEINKELNQVMEQLGDARIDRQESSRQQRKAEIMESIKRLYPGSVYGRLIDLCQPTQKKYQIAVTKVLGKNMDAIIVDSEKTGRDCIQYIKEQRGEPETFLPLDYLEVKPTDEKLRELKGAKLVIDVIRYEPPHIKKALQYACGNALVCDNVEDARRIAFGGHQRHKTVALDGTLFQKSGVISGGASDLKAKARRWDEKAVDKLKEKKERLTEELKEQMKAKRKEAELRQVQSQAHGLQMRLKYSQSDLEQTKTRHLALNLQEKSKLESELANFGPRINDIKRIIQSREREMKDLKEKMNQVEDEVFEEFCREIGVRNIREFEEEKVKRQNEIAKKRLEFENQKTRLGIQLDFEKNQLKEDQDKVHMWEQTVKKDENEIEKLKKEEQRHMKIIDETMAQLQDLKNQHLAKKSEVNDKNHEMEEIRKKLGGANKEMTHLQKEVTAIETKLEQKRSDRHNLLQACKMQDIKLPLSKGTMDDISQEEGSSQGEDSVSGSQRISSIYAREALIEIDYGDLCEDLKDAQAEEEIKQEMNTLQQKLNEQQSVLQRIAAPNMKAMEKLESVRDKFQETSDEFEAARKRAKKAKQAFEQIKKERFDRFNACFESVATNIDEIYKALSRNSSAQAFLGPENPEEPYLDGINYNCVAPGKRFRPMDNLSGGEKTVAALALLFAIHSYKPAPFFVLDEIDAALDNTNIGKVANYIKEQSTCNFQAIVISLKEEFYTKAESLIGVYPEQGDCVISKVLTFDLTKYPDANPNPNEQ"}},
  "key": {"[1]": {"target": "FLAG-tagged SMIMP deletion mutant M4 (amino acids 16–20 deleted) (human)", "assay": "co-IP; HEK293FT cells cotransfected with HA-tagged SMC1A (wild type or truncation) and FLAG-tagged SMIMP (wild type or deletion mutant), lysates immunoprecipitated with anti-FLAG antibody, immunoblot"}, "[2]": {"target": "FLAG-tagged wild-type SMIMP (human)", "assay": "co-IP; HEK293FT cells cotransfected with HA-tagged SMC1A (wild type or truncation) and FLAG-tagged SMIMP (wild type or deletion mutant), lysates immunoprecipitated with anti-FLAG antibody, immunoblot"}},
  "note": "Results are given in words; binding and its absence hold for the method and conditions named. In cells and extracts the contact can be indirect. For some assays here: A result given as binding can be weak or reduced; the word gives no strength. Tags and fused reporters may be left off the sequences shown.",
  "data": [
    {"binder": "B1", "values": [
      {"measurement": "binding", "setting": "[1]", "result": "no binding"},
      {"measurement": "binding", "setting": "[2]", "result": "binds"}
    ]}
  ]
}
